Laboratory results reported in US9763942B2, “Serine/threonine kinase inhibitors” (Array BioPharma Inc., priority 2013, dated 2017).
Some of these results come from one statement about several compounds together.

Sequences of proteins named here, by UniProt entry; tags and fusion partners are left off. Residues count along the entry.
UniProt P28482, 8-360: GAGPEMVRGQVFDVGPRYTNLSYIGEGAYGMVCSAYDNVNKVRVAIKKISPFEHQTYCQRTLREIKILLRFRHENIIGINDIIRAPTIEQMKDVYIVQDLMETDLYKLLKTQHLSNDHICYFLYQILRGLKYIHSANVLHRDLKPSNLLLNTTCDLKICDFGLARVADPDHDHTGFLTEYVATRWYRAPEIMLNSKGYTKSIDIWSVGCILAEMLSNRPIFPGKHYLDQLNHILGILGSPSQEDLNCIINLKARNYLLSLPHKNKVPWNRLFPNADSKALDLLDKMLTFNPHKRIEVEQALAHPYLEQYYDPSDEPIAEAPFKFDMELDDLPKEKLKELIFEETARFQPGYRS

Target: T1, human ERK-2 (Mitogen Activated Kinase 1) (Homo sapiens, UniProt P28482)
T1 construct: n-terminal 6-His fusion protein in E. coli and corresponding to aa 8-360; 6-His (N); made in house; host or cells: E. coli
Test: ERK-2 Enzymatic Assay
Type: biochemical
From the text: Table 1 contains representative data for Examples disclosed herein.

| SMILES | IC50 |
| --- | --- |
| Cn1nccc1Nc1nccc(-c2ccc3c(c2)nnn3Cc2cccc(C(F)(F)F)n2)n1 [Example 52, N-(1-methyl-1H-pyrazol-5-yl)-4-(1-((6-(trifluoromethyl)pyridin-2-yl)methyl)-1H-benzo[d][1,2,3]triazol-5-yl)pyrimidin-2-amine] | < 1000 nM |
| COc1ccc(Cn2nnc3cc(-c4ccnc(Nc5cc(C6CC6)nn5C)n4)ccc32)cc1F [Example 25, N-(3-cyclopropyl-1-methyl-1H-pyrazol-5-yl)-4-(1-(3-fluoro-4-methoxybenzyl)-1H-benzoyl[d][1,2,3]triazol-5-yl)pyrimidin-2-amine] | < 1000 nM |
| COc1ccc(Cn2nnc3cc(-c4ccnc(NC5CC5)n4)ccc32)cc1F [Example 15, N-cyclopropyl-4-(1-(3-fluoro-4-methoxybenzyl)-1H-benzo[d][1,2,3]triazol-5-yl)pyrimidin-2-amine] | < 1000 nM |

Next, values leading:

| IC50 | SMILES |
| --- | --- |
| < 1000 nM | Cn1nccc1Nc1nccc(-c2ccc3c(c2)nnn3CC2CN(C(=O)OC(C)(C)C)C2)n1 [Example 63, tert-butyl 3-((5-(2-((1-methyl-1H-pyrazol-5-yl)amino)pyrimidin-4-yl)-1H-benzo[d][1,2,3]triazol-1-yl)methyl)azetidine-1-carboxylate] |
| < 1000 nM | CN1C[C@@H](n2nnc3cc(-c4ccnc(Nc5ccnn5C)n4)ccc32)[C@H](c2ccc(F)c(F)c2)C1 [Example 75, 4-(1-((3S,4R)-4-(3,4-difluorophenyl)-1-methylpyrrolidin-3-yl)-1H-benzo[d][1,2,3]triazol-5-yl)-N-(1-methyl-1H-pyrazol-5-yl)pyrimidin-2-amine] |
